The test system of the data set is Caco-2: endogenous transporters.

SMILES strings stand for the structures. Certain results were filed several times, with different values. They are shown here; other results are not. An entry can have further records. Values that stand side by side do not match, cause unknown; some may be repeats, others may stem from another dose, organism or construct than stated.

Turning to `CO[C@H]1/C=C/O[C@@]2(C)Oc3c(C)c(O)c4c(=O)c(c5oc6cc(OCCN(C)C)cc(O)c6nc-5c4c3C2=O)NC(=O)/C(C)=C\C=C\[C@H](C)[C@H](O)[C@@H](C)[C@@H](O)[C@@H](C)[C@H](OC(C)=O)[C@@H]1C`, the recovery was 16.3% and 58.3%.

Values taken from PMC10766536 (The Journal of Antibiotics, 2023).
